{"source": "PubChem BioAssay AID1259425 – University of Nebraska Medical Center – 2018", "purpose": "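Seek colon cancer weak points whose silencing resembles KSR1 loss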 (primary screen)", "cell system": "HCT116 human colon cancer cells", "knock-down reagent": "siRNA pool against human genes, 50 nM siRNA", "detection": "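After 50 nM siRNA pool, branched-DNA assay measures six marker transcripts per well, minus blank, normalised to the geometric mean of two housekeeping transcripts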", "reading the numbers": "BNIP3L mRNA: higher = more BNIP3L transcript after knockdown", "note": "Here is one part, drawn at random, of about 14,000 deposited reagents. Further read-outs or replicates are left out here. Not given: the time to read-out."}
{"Gene": "PCDH8", "BNIP3L mRNA, set 1": 0.0879}
{"Gene": "WNT5B", "BNIP3L mRNA, set 1": 0.085}
{"Gene": "DLGAP3", "BNIP3L mRNA, set 1": 0.144}
{"Gene": "PHF1", "BNIP3L mRNA, set 1": 0.0825}
{"Gene": "CYP2A13", "BNIP3L mRNA, set 1": 0.0918}
{"Gene": "RAB21", "BNIP3L mRNA, set 1": 0.116}
{"Gene": "KNG1", "BNIP3L mRNA, set 1": 0.0963}
{"Gene": "SSH3", "BNIP3L mRNA, set 1": 0.113}

2 entries already listed, arranged by “BNIP3L mRNA, set 1”, high to low:
{"Gene": "PCDH8", "BNIP3L mRNA, set 1": 0.0879}
{"Gene": "WNT5B", "BNIP3L mRNA, set 1": 0.085}

The list goes on:
{"Gene": "ABHD18", "BNIP3L mRNA, set 1": 0.0741}
{"Gene": "AIP", "BNIP3L mRNA, set 1": 0.147}
{"Gene": "PLP1", "BNIP3L mRNA, set 1": 0.0696}
{"Gene": "DAAM1", "BNIP3L mRNA, set 1": 0.13}
{"Gene": "MTHFD1L", "BNIP3L mRNA, set 1": 0.155}
{"Gene": "MTMR11", "BNIP3L mRNA, set 1": 0.16}
{"Gene": "ZSCAN32", "BNIP3L mRNA, set 1": 0.169}
{"Gene": "NOP2", "BNIP3L mRNA, set 1": 0.176}
{"Gene": "PRPF19", "BNIP3L mRNA, set 1": 0.19}
{"Gene": "TAF7L", "BNIP3L mRNA, set 1": 0.0337}
{"Gene": "EN2", "BNIP3L mRNA, set 1": 0.147}
